Measured data: PubChem BioAssay AID1259308 (NCATS, 2017)

- Test: 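Genes whose loss raises luciferase production in HEK293 cells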 (primary screen)
- Cells: human HEK293 embryonic kidney cells stably expressing firefly luciferase (HEK-CMV-Luc2-Hygro)
- Reagents: single siRNA against human genes, 0.8 pmol siRNA per well
- Timing: 72 h
- Measured: 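Luciferase light (ONE-Glo) measured on one replicate plate set and viability (CellTiter-Glo) on the other, scaled to a negative control siRNA, with robust z-scores and luciferase per cell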
- Direction: total luciferase, z-score: higher = more reporter protein produced
- Rule for the call: 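An siRNA counts as active if its total luciferase robust z-score exceeds 3; genes with two or more such siRNAs out of three were retested with fresh siRNAs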
- Meaning of the calls: active = raised luciferase; inactive = no rise
In all, the deposit lists about 59,000 reagents; below is a part drawn at random. About 1,510 of all reagents (2.6%) were called active. 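Calls use total luciferase alone and ignore viability, so some active siRNAs may act by altering cell number.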 Reagents against one gene are numbered here. Further read-outs or replicates are left out here. No sequences are given here.

total luciferase, z-score, by gene symbol and reagent
OR5P2: #1 -0.333 inactive; #2 -0.213 inactive; #3 0.673 inactive
KRT42P: #1 1.08 inactive; #2 0.0936 inactive; #3 -1.91 inactive
ZFP91: #1 0.0854 inactive; #2 0.355 inactive; #3 -0.672 inactive
CCN5: #1 0.605 inactive; #2 1.46 inactive; #3 -0.772 inactive
AP3B2: #1 -1.31 inactive; #2 0.714 inactive; #3 0.534 inactive
COL22A1: #1 0.477 inactive; #2 -1.13 inactive; #3 3.02 active
VPS37A: #1 0.0512 inactive; #2 1.12 inactive; #3 -0.872 inactive
SERHL: #1 -1.02 inactive; #2 -0.227 inactive; #3 -1.79 inactive
STAG3L1: #1 1.22 inactive; #2 -2 inactive; #3 1.13 inactive
PGLYRP2: #1 -0.881 inactive; #2 -0.22 inactive; #3 -1.53 inactive

5 of these entries in another layout.
{"gene symbol": "CCN5", "reagent no.": 1, "total luciferase, z-score": 0.605, "outcome": "inactive"}
{"gene symbol": "CCN5", "reagent no.": 2, "total luciferase, z-score": 1.46, "outcome": "inactive"}
{"gene symbol": "CCN5", "reagent no.": 3, "total luciferase, z-score": -0.772, "outcome": "inactive"}
{"gene symbol": "AP3B2", "reagent no.": 1, "total luciferase, z-score": -1.31, "outcome": "inactive"}
{"gene symbol": "AP3B2", "reagent no.": 2, "total luciferase, z-score": 0.714, "outcome": "inactive"}

Additional records follow.
total luciferase, z-score, by gene symbol and reagent
OR4A47: #1 -0.725 inactive; #2 -0.156 inactive; #3 0.752 inactive
MCRIP1: #1 -0.159 inactive; #2 -0.989 inactive; #3 3.97 active
THEM6: #1 0.268 inactive; #2 0.0395 inactive; #3 1.15 inactive
SAT1: #1 -0.233 inactive; #2 -0.0951 inactive; #3 0.529 inactive
SESN3: #1 1.44 inactive; #2 -1.73 inactive; #3 1.53 inactive
MBNL2: #1 0.0941 inactive; #2 -2.14 inactive; #3 -0.568 inactive
TAX1BP1: #1 2.49 inactive; #2 1.55 inactive; #3 -0.345 inactive
TMEM223: #1 1.99 inactive; #2 0.22 inactive; #3 0.108 inactive
NOXA1: #1 0.177 inactive; #2 -0.725 inactive; #3 1.18 inactive
